How the values were obtained:
[1] = test system: 1405R3; assay: High-throughput drug screen, CellTiter-Glo viability, 72 h; type: cell-based, human; parameters: scale not given here
Description: (§1) The cells were seeded and incubated with a gradient of concentrations of drugs for 72 h, after which the cell viability was assessed (Supplementary Fig. 1a). The drug library primarily comprises epigenetic drugs, including HDAC inhibitors, DNA methyltransferase inhibitors, and histone demethylase inhibitors, as well as conventional chemotherapies and kinase inhibitors (Supplementary Fig. 1b and Supplementary Table 1). […] To identify novel therapeutics against CCA, we conducted a high-throughput screen employing PerkinElmer’s integrated robotic Explorer G3 workstations. […] Following dilution to five specified concentrations, drugs were dispensed into 96-well plates in the sequence detailed in Supplementary Fig. 1a. […] We then quantified cell viability via the CellTiter-Glo luminescent assay according to the manufacturer’s protocol. Signal detection was carried out on a Synergy2 plate reader operated by Gen5 software (BioTek). For data processing, the raw luminescence data were processed through the Breeze pipeline for curve fitting, yielding quality control metrics (e.g., Z-factors) and drug response parameters (AUC and DSS), as adapted from previous work.[54] Drug responses were evaluated on the basis of the drug sensitivity score (DSS), and a cutoff of ≥10 was used to define efficacy. […]

[2] = test system: 783C-6; assay: as above; type: cell-based, human; parameters: scale not given here
Description: as §1

## CCNC(=O)C[C@@H]1N=C(c2ccc(Cl)cc2)c2cc(OC)ccc2-n2c(C)nnc21 [I-BET-762]
[1]
  AUC: 51.5
[2]
  AUC: 0.6
